# From PubChem BioAssay AID2551 (National Center for Advancing Translational Sciences (NCATS), 2010)
# By UniProt entry, the sequences of proteins in these tests, tags left out. Where a name states a change or a piece, a line headed by the entry shows the natural chain unless it says otherwise.
# UniProt P51450: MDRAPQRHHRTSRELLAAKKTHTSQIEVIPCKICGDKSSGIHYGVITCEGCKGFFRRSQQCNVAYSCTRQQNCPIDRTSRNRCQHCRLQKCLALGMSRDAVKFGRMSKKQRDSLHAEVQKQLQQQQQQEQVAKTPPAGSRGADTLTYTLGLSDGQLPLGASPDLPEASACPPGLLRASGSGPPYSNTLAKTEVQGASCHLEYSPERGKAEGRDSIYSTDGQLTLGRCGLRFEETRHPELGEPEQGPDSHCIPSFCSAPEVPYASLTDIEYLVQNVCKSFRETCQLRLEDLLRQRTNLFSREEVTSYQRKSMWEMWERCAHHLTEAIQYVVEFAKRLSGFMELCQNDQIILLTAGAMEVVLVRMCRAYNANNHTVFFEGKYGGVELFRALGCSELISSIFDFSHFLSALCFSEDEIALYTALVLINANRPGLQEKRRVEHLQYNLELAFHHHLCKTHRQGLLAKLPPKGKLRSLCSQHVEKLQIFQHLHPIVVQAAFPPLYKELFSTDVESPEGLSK
# Screen size: about 310,000 compounds; about 17,000 (5.5%) were called active. Inconclusive means that the source gave no clear call. Such entries were picked first, then a sample of the others. The call rests on the fitted dose curve; in most records, active means well fitted inhibition curve with a large enough effect; inconclusive means small, poorly fitted or top-dose-only effect, or effect the other way; inactive means no such curve, though single readings can be large or run the other way. Potencies beside an inconclusive call are fits to weak or partial responses and may not hold up.
# Target: Nuclear receptor ROR-gamma (Mus musculus) (UniProt P51450)
# Assay: qHTS for inhibitors of ROR gamma transcriptional activity; further: nearly all actives have a fitted effect of over 60% in size
# Details: Drosophila S2 Gal4-RORgamma UAS-luciferase reporter, 20 h; activity change, negative = inhibition: at 53.6 µM (top of the series)
# Summary of the method: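 Using a luciferase readout, inhibitors were identified by reduced reporter activity in Drosophila cells coexpressing a copper-inducible Gal4–ROR gamma fusion and UAS-driven Photinus luciferase, incubated 20 hr after 700 uM copper sulfate.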
# On the % scale 0 is the no-effect control and ±100 the full control effect; potency means the concentration at half of the fitted maximal effect.
SMILES,Potency,"activity change, negative = inhibition"
Cc1ccc(C2CC(=O)Oc3ccc(C(C)(C)C)cc32)cc1 (centres undefined),"inconclusive: 50.1 µM [inhibitor, single point]",–
CC(=O)NC(=S)Nc1ccc(NC(=S)NC(=O)c2cccs2)cc1,–,inactive: -1.66%
Cc1cc(C)nc(NC(=O)c2cccs2)c1,–,inactive: 13.4%
CCOC(=O)N1CCN(S(=O)(=O)c2ccc(F)c(C(=O)Nc3ccc(C)c(Cl)c3)c2)CC1,"inconclusive: 31.6 µM [activator, single point]",–
COc1ccc(OC)c(NC(=O)CC2SC(=Nc3ccc(F)cc3)N(CCC3=CCCCC3)C2=O)c1 (centres undefined),"inconclusive: 20 µM [inhibitor, single point]",–
Cc1ccc(NC(=O)CCC(=O)c2cccs2)cc1,–,inactive: 13%
O=c1cc(-c2ccc(O)cc2)oc2ccc(O)cc12,"inconclusive: 17.8 µM [inhibitor, single point]",–
Cc1ccc(S(=O)(=O)n2ccnc2)cc1C,"inconclusive: 0.316 µM [activator, full curve, poor fit]",–
Cc1nn(Cc2noc(C(=O)NCCCn3ccnc3)n2)c(C)c1Br,–,inactive: 4.27%
Cc1ccc(NC(=S)NC(NC(=O)c2ccccc2)C(Cl)(Cl)Cl)c(C)c1 (centres undefined),"inconclusive: 25.1 µM [inhibitor, single point]",–
Cc1ccc(-n2c3c(cc(C(=O)NCc4ccco4)c2=O)C(=O)CC(C)(C)C3)cc1,–,inactive: -32.8%
CC(O)c1nc2ccccc2n1Cc1nnc(-c2ccc(Cl)cc2)o1 (centres undefined),–,inactive: 23.5%
Cc1cc(Cl)ccc1OCC(=O)Nc1ccncc1,"inconclusive: 1.26 µM [activator, single point]",–
CCOC(=O)N1CCN(S(=O)(=O)c2ccc(C(=O)N(CCCN(C)C)c3nc4ccc(OC)cc4s3)cc2)CC1,–,inactive: -20.7%
Brc1ccccc1Cn1c(-c2cscn2)nc2ccccc21,"inconclusive: 11.2 µM [inhibitor, single point]",–
COC(=O)c1c(NC(=O)CC2SC(N)=NC2=O)sc2c1CCC(C)C2 (centres undefined),"inconclusive: 7.94 µM [activator, partial curve]",–
COC(CN(C)S(=O)(=O)c1cc2c3c(c1)CCN3C(=O)CC2)OC,–,inactive: -3%
COc1ccc(C2CC(=O)c3cnc(N4CCN(Cc5ccccc5)CC4)nc3C2)cc1 (centres undefined),"inconclusive: 12.6 µM [activator, partial curve]",–
O=C(O)c1ccc2c(c1)C(=O)N(NC(=O)c1ccc(O)cc1)C2=O,active: 11.2 µM,–
COc1ccc(OC)c(S(=O)(=O)N(C(C)=O)c2ccc3oc(=O)sc3c2)c1,–,inactive: 2.19%
O=C(NC(=S)N1CCCCCC1)C1CC1,"inconclusive: 20 µM [inhibitor, single point]",–
Cc1cccc(CNc2cc(-c3ccc(N(C)C)cc3)ncn2)c1,"inconclusive: 14.1 µM [activator, partial curve]",–
CN=c1scc(-c2ccccc2F)n1/N=C/c1ccc[nH]1,active: 0.0224 µM,–
Cc1oc(-c2ccc(Cl)cc2)nc1CSCC(=O)NCCCN1CCOCC1,–,inactive: 7.91%
O=C(c1ccco1)N1CCN(S(=O)(=O)c2cccs2)CC1,"inconclusive: 12.6 µM [inhibitor, partial curve, poor fit]",–

SMILES,Potency,"activity change, negative = inhibition"
Cc1ccc(-c2nn(-c3ccccc3)cc2CC(=S)N2CCOCC2)cc1,active: 17.8 µM,–
COc1ccccc1N1C(=O)CC(N(O)c2ccccc2)C1=O (centres undefined),–,inactive: 20.1%
COc1ccc(/C=C/C(=O)Oc2cccc(/C=N/NC(=O)c3cccc(F)c3)c2)cc1,"inconclusive: 25.1 µM [inhibitor, single point]",–
CCOC(=O)c1ccc(S(=O)(=O)Nc2ccc(N3CCOCC3)cc2)cc1,"inconclusive: 17.8 µM [activator, single point]",–
Cc1cc(C)n(-c2nc(SCC(=O)O)c3c4c(sc3n2)CCCC4)n1,"inconclusive: 0.631 µM [inhibitor, partial curve]",–
O=C(N=Nc1c(O)[nH]c2ccccc12)c1ccco1,"inconclusive: 8.91 µM [inhibitor, partial curve]",–
COc1ccc(N=Cc2c(O)n(-c3cccc(C)n3)c(=O)c3ccccc23)cc1,–,inactive: 36.3%
COc1ccc(Cl)c2c1[nH]c1nc(SCc3ccccn3)nnc12,–,inactive: 30.9%
O=C(CCc1ccc(O)cc1)c1c(O)cc(O)cc1O,"inconclusive: 31.6 µM [activator, single point]",–
COc1ccc(NC(=O)C(C)SCc2ccccc2)cc1OC (centres undefined),"inconclusive: 10 µM [activator, partial curve]",–
O=C(Nc1ccccc1F)c1ccc(-c2cccc([N+](=O)[O-])c2)o1,–,inactive: -18.8%
Cc1ccc(S(=O)(=O)NCc2ccc(C(=O)N3CCN(c4ccc([N+](=O)[O-])cc4)CC3)cc2)cc1,"inconclusive: 15.8 µM [activator, single point]",–
O=c1c(Cl)c(Nc2cccc(Cl)c2)cnn1-c1nc2ccccc2s1,"inconclusive: 0.199 µM [activator, partial curve]",–
Cc1cc(C)n(CCOc2ccc(Cl)cc2Cl)n1,"inconclusive: 8.91 µM [inhibitor, partial curve]",–
CCOC(=O)C1=C(C)N=c2s/c(=C\c3ccc(OCC(=O)O)cc3)c(=O)n2C1c1ccc(Cl)cc1 (centres undefined),–,inactive: 31.1%
CS(=O)(=O)c1sc(C(=O)NC(=S)Nc2ccc(OC(F)(F)F)cc2)c2c1C=CCC2,active: 7.08 µM,–
Fc1ccc(F)c(C2=NNC(=NCC3CCCO3)SC2)c1 (centres undefined),"inconclusive: 6.31 µM [inhibitor, full curve, poor fit]",–
Cc1ccc(S(=O)(=O)N2CCN=C2SCc2ccc(Cl)c(Cl)c2)cc1,"inconclusive: 10 µM [activator, partial curve]",–
COc1ccc(S(=O)(=O)N2CCCN(CCC(=O)Nc3cccc(C(F)(F)F)c3)CC2)cc1,"inconclusive: 31.6 µM [inhibitor, single point]",–
O=C1C(Cc2ccccc2)NC(=S)N1Cc1ccccc1 (centres undefined),active: 12.6 µM,–
CCOC(=O)N1CCN(C(=O)C2CCCN(S(=O)(=O)c3ccccc3)C2)CC1 (centres undefined),–,inactive: 16.2%
CCC1(C)Cc2c(C#N)c(N)n(-c3ccccc3)c(=O)c2CO1 (centres undefined),–,inactive: 10.3%
COc1ccccc1-c1cncnc1NCc1cnc(C)cn1,–,inactive: 5.51%
COc1ccc(-c2nnc(SCc3nc4ccccc4s3)n2C(C)C)cc1,"inconclusive: 2.51 µM [activator, full curve, poor fit]",–
Cc1ccc(CNC(=O)c2cc3c(=O)n4ccccc4nc3n(Cc3ccco3)c2=N)cc1,active: 3.16 µM,–

SMILES,Potency,"activity change, negative = inhibition"
O=C(Nc1ccc(F)cc1)Nc1nnc(-c2ccco2)s1,"inconclusive: 0.794 µM [activator, full curve]",–
Cc1ccc(S(=O)(=O)NCCS(=O)(=O)N2CCN(c3ccccc3)CC2)cc1,–,inactive: 15.2%
O=C(CSc1ncnc2c1nnn2Cc1ccccc1F)NCC1CCCO1 (centres undefined),active: 12.6 µM,–
CCC(=O)Nc1nnc(SCC(=O)Nc2ccc3c(c2)OCCO3)s1,–,inactive: 21%
O=C(NCCCN1CCCC1=O)c1ccc2c(=O)n(Cc3ccco3)c(=S)[nH]c2c1,"inconclusive: 7.94 µM [activator, partial curve]",–
O=C(CSC1=NC2(CCCCC2)N=C1c1ccccc1)Nc1ccc2c(c1)OCCO2,"inconclusive: 15.8 µM [activator, single point]",–
CCN(CC)C(=O)CSc1nnc(-c2ccco2)o1,"inconclusive: 11.2 µM [activator, partial curve]",–
COc1ccccc1-c1nc(-c2ccncc2)no1,"inconclusive: 12.6 µM [inhibitor, single point]",–
Cn1nnnc1Sc1ncnc2scc(-c3ccc(F)cc3)c12,active: 10 µM,–
CN(C)c1ccc(C(c2nnnn2C(C)(C)C)N2CCN(C(=O)c3ccco3)CC2)cc1 (centres undefined),"inconclusive: 2.51 µM [inhibitor, full curve]",–
CN(C)CC(C(=O)c1ccccc1)c1ccccc1 (centres undefined),active: 7.08 µM,–
CC(=O)c1ccc(N2CCN(C(=O)C3CCN(S(=O)(=O)c4ccc5c(c4)CC(C)N5C(C)=O)CC3)CC2)cc1 (centres undefined),"inconclusive: 14.1 µM [activator, single point]",–
CN(c1ccccc1)S(=O)(=O)c1cccc(NC(=O)c2cc(=O)c3ccccc3o2)c1,"inconclusive: 7.08 µM [activator, partial curve]",–
COc1cc(/C=C/C(=O)c2cccc([N+](=O)[O-])c2)cc(OC)c1OC,active: 15.8 µM,–
CC(C)(C)Nc1nc(N)nc(Cl)n1,"inconclusive: 12.6 µM [activator, single point]",–
Cc1cccc2cc(CN(Cc3ccc(F)cc3)C(=O)N3CCOCC3)c(=O)[nH]c12,"inconclusive: 0.251 µM [activator, single point]",–
CCOC(=O)c1c(NC(=O)COc2ccccc2C#N)sc2c1CC(C)(C)NC2(C)C,"inconclusive: 22.4 µM [inhibitor, single point]",–
CC(C)NC(=O)c1ccc2c(c1)N(CC(=O)Nc1ccccc1F)C(=O)C(C)(C)O2,–,inactive: -17.6%
COc1ccc(C(=O)N2CCN(Cc3ccccc3C)CC2)cc1OC,"inconclusive: 0.562 µM [inhibitor, single point]",–
Cc1ccc(NC(=O)C(C)N2CCOCC2)c(C(=O)c2ccccc2)c1 (centres undefined),–,inactive: 10.8%
Cc1ccccc1-n1nc2c(c1NC(=O)c1c(-c3ccccc3Cl)noc1C)CSC2,–,inactive: 8.18%
CCN(CC)c1ccc(NC(=O)c2cccc(C)c2)cc1S(=O)(=O)Nc1ccccc1OC,–,inactive: 23%
Cc1ccc(-n2nc(C)c(NC(=O)CCl)c2C)cc1,"inconclusive: 15.8 µM [activator, single point]",–
O=C(Nc1cccc(C(=O)N2CCN(Cc3ccccc3)CC2)c1)c1ccccc1,"inconclusive: 35.5 µM [activator, single point]",–

# Part of the list above in order of heavy-atom count, descending.
SMILES,Potency,"activity change, negative = inhibition"
Cc1ccc(S(=O)(=O)NCc2ccc(C(=O)N3CCN(c4ccc([N+](=O)[O-])cc4)CC3)cc2)cc1,"inconclusive: 15.8 µM [activator, single point]",–
CCOC(=O)c1c(NC(=O)COc2ccccc2C#N)sc2c1CC(C)(C)NC2(C)C,"inconclusive: 22.4 µM [inhibitor, single point]",–
O=C(CCc1ccc(O)cc1)c1c(O)cc(O)cc1O,"inconclusive: 31.6 µM [activator, single point]",–
